Assay results as given in US6833237B1, “Genes involved in stroke response and/or regulated by FK506, proteins encoded thereby, and methods of use” (Quark Biotech, Inc., priority 2000, dated 2004).
At least one structure is not confirmed: it was looked up by name or label, or the drawing left a doubt.

System: primary neuron culture derived from cerebellum of 7 day old rat pups
Test: FK506 on primary neurons undergoing hypoxia treatment
Type: cell-based
Conditions: 16 h hypoxia, 100 ng/mL FK506 (FIG. 1)

With C=CC[C@@H]1/C=C(\C)C[C@H](C)C[C@H](OC)[C@H]2O[C@@](O)(C(=O)C(=O)N3CCCC[C@H]3C(=O)O[C@H](/C(C)=C/[C@@H]3CC[C@@H](O)[C@H](OC)C3)[C@H](C)[C@@H](O)CC1=O)[C@H](C)C[C@@H]2OC [FK506] the neuroprotective effect was “optimal neuroprotective effect”.
